Laboratory results as given in the supplement of paper PMC8728848.
The list shows a part of the results.

Key:
Assay in all cases: glycan array binding signal (z-score within array); higher = stronger binding
Conditions in all cases: glycan notation: IUPAC condensed, linker removed
[1] = target: Neu5Ac(a2-3)Gal(b1-4)GlcNAc(b1-2)[Neu5Ac(a2-3)Gal(b1-4)GlcNAc(b1-4)]Man(a1-3)[GlcNAc(b1-4)][Neu5Ac(a2-3)Gal(b1-4)GlcNAc(b1-4)Man(a1-6)]Man(b1-4)GlcNAc(b1-4)GlcNAc
In short: (§1)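 Arrays were curated from the Consortium for Functional Glycomics database, 3228 in total, and kept only where the protein sequence was available. Binding is expressed as a within-array Z-score. This score was averaged across arrays of the same protein sequence at different concentrations or buffers and across linkers, and negative values can be read as non-binding.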

[2] = target: Neu5Ac(a2-3)Gal(b1-4)GlcNAc(b1-2)[Neu5Ac(a2-3)Gal(b1-4)GlcNAc(b1-6)]Man(a1-6)[Neu5Ac(a2-3)Gal(b1-4)GlcNAc(b1-2)Man(a1-3)]Man(b1-4)GlcNAc(b1-4)GlcNAc
In short: as §1

[3] = target: Neu5Ac(a2-3)Gal(b1-4)GlcNAc(b1-2)[Neu5Ac(a2-3)Gal(b1-4)GlcNAc(b1-6)]Man(a1-6)[Neu5Ac(a2-3)Gal(b1-4)GlcNAc(b1-2)Man(a1-3)][GlcNAc(b1-4)]Man(b1-4)GlcNAc(b1-4)GlcNAc
In short: as §1

[4] = target: Neu5Ac(a2-3)Gal(b1-4)GlcNAc(b1-3)Gal
In short: as §1

[5] = target: Neu5Ac(a2-3)Gal(b1-4)GlcNAc(b1-3)Gal(b1-3)GlcNAc
In short: as §1

[6] = target: Neu5Ac(a2-3)Gal(b1-4)GlcNAc(b1-3)Gal(b1-4)GlcNAc
In short: as §1

[7] = target: Neu5Ac(a2-3)Gal(b1-4)GlcNAc(b1-3)Gal(b1-4)GlcNAc(b1-2)Man(a1-3)[Neu5Ac(a2-3)Gal(b1-4)GlcNAc(b1-3)Gal(b1-4)GlcNAc(b1-2)Man(a1-6)]Man(b1-4)GlcNAc(b1-4)GlcNAc
In short: as §1

[8] = target: Neu5Ac(a2-3)Gal(b1-4)GlcNAc(b1-3)Gal(b1-4)GlcNAc(b1-3)Gal(b1-4)GlcNAc
In short: as §1

[9] = target: Neu5Ac(a2-3)Gal(b1-4)GlcNAc(b1-3)Gal(b1-4)GlcNAc(b1-3)Gal(b1-4)GlcNAc(b1-2)Man(a1-3)[Neu5Ac(a2-3)Gal(b1-4)GlcNAc(b1-3)Gal(b1-4)GlcNAc(b1-3)Gal(b1-4)GlcNAc(b1-2)Man(a1-6)]GalNAc
In short: as §1

[10] = target: Neu5Ac(a2-3)Gal(b1-4)GlcNAc(b1-3)Gal(b1-4)GlcNAc(b1-3)GalNAc
In short: as §1

[11] = target: Neu5Ac(a2-3)Gal(b1-4)GlcNAc(b1-3)Gal(b1-4)GlcNAc(b1-3)[Neu5Ac(a2-3)Gal(b1-4)GlcNAc(b1-3)Gal(b1-4)GlcNAc(b1-6)]GalNAc
In short: as §1

[12] = target: Neu5Ac(a2-3)Gal(b1-4)GlcNAc(b1-3)Gal(b1-4)GlcNAc(b1-6)[Gal(b1-3)]GalNAc
In short: as §1

[13] = target: Neu5Ac(a2-3)Gal(b1-4)GlcNAc(b1-3)Gal(b1-4)[Fuc(a1-3)]GlcNAc
In short: as §1

[14] = target: Neu5Ac(a2-3)Gal(b1-4)GlcNAc(b1-3)GalNAc
In short: as §1

[15] = target: Neu5Ac(a2-3)Gal(b1-4)GlcNAc(b1-3)[Neu5Ac(a2-3)Gal(b1-4)GlcNAc(b1-6)]GalNAc
In short: as §1

[16] = target: Neu5Ac(a2-3)Gal(b1-4)GlcNAc(b1-6)GalNAc
In short: as §1

[17] = target: Neu5Ac(a2-3)Gal(b1-4)GlcNAc(b1-6)[Gal(b1-3)]GalNAc
In short: as §1

[18] = target: Neu5Ac(a2-3)Gal(b1-4)GlcNAc(b1-6)[Neu5Ac(a2-3)Gal(b1-3)]GalNAc
In short: as §1

[19] = target: Neu5Ac(a2-3)Gal(b1-4)GlcNAc6S
In short: as §1

[20] = target: Neu5Ac(a2-3)Gal(b1-4)[Fuc(a1-3)]GlcNAc
In short: as §1

[21] = target: Neu5Ac(a2-3)Gal(b1-4)[Fuc(a1-3)]GlcNAc(b1-2)Man
In short: as §1

[22] = target: Neu5Ac(a2-3)Gal(b1-4)[Fuc(a1-3)]GlcNAc(b1-3)Gal
In short: as §1

[23] = target: Neu5Ac(a2-3)Gal(b1-4)[Fuc(a1-3)]GlcNAc(b1-3)Gal(b1-4)GlcNAc
In short: as §1

[24] = target: Neu5Ac(a2-3)Gal(b1-4)[Fuc(a1-3)]GlcNAc(b1-3)Gal(b1-4)[Fuc(a1-3)]GlcNAc(b1-3)Gal(b1-4)[Fuc(a1-3)]GlcNAc
In short: as §1

[25] = target: Neu5Ac(a2-3)Gal(b1-4)[Fuc(a1-3)]GlcNAc(b1-3)GalNAc
In short: as §1

[26] = target: Neu5Ac(a2-3)Gal(b1-4)[Fuc(a1-3)]GlcNAc(b1-6)[Gal(b1-3)]GalNAc
In short: as §1

[27] = target: Neu5Ac(a2-3)Gal(b1-4)[Fuc(a1-3)]GlcNAc(b1-6)[Neu5Ac(a2-3)Gal(b1-3)]GalNAc
In short: as §1

[28] = target: Neu5Ac(a2-3)Gal(b1-4)[Fuc(a1-3)]GlcNAc6S
In short: as §1

[29] = target: Neu5Ac(a2-3)Gal6S(b1-4)GlcNAc
In short: as §1

[30] = target: Neu5Ac(a2-3)Gal6S(b1-4)[Fuc(a1-3)]GlcNAc
In short: as §1

Neu5Ac(a2-3)GalNAc = target: Neu5Ac(a2-3)GalNAc
In short: as §1

[31] = target: Neu5Ac(a2-3)GalNAc(b1-4)GlcNAc
In short: as §1

[32] = target: Neu5Ac(a2-3)[GalNAc(b1-4)]Gal(b1-4)Glc
In short: as §1

[33] = target: Neu5Ac(a2-3)[GalNAc(b1-4)]Gal(b1-4)GlcNAc
In short: as §1

[34] = target: Neu5Ac(a2-3)[GalNAc(b1-4)]Gal(b1-4)GlcNAc(b1-3)GalNAc
In short: as §1

[35] = target: Neu5Ac(a2-3)[Neu5Ac(a2-6)]GalNAc
In short: as §1

Neu5Ac(a2-6)Gal = target: Neu5Ac(a2-6)Gal
In short: as §1

[36] = target: Neu5Ac(a2-6)Gal(b1-3)GlcNAc(b1-3)[Gal(b1-4)GlcNAc(b1-6)]Gal(b1-4)Glc
In short: as §1

Neu5Ac(a2-6)Gal(b1-4)Glc = target: Neu5Ac(a2-6)Gal(b1-4)Glc
In short: as §1

[37] = target: Neu5Ac(a2-6)Gal(b1-4)GlcNAc
In short: as §1

[38] = target: Neu5Ac(a2-6)Gal(b1-4)GlcNAc(b1-2)Man
In short: as §1

[39] = target: Neu5Ac(a2-6)Gal(b1-4)GlcNAc(b1-2)Man(a1-3)Man(b1-4)GlcNAc(b1-4)GlcNAc
In short: as §1

[40] = target: Neu5Ac(a2-6)Gal(b1-4)GlcNAc(b1-2)Man(a1-3)[Gal(b1-4)GlcNAc(b1-2)Man(a1-6)]Man(b1-4)GlcNAc(b1-4)GlcNAc
In short: as §1

[41] = target: Neu5Ac(a2-6)Gal(b1-4)GlcNAc(b1-2)Man(a1-3)[GlcNAc(b1-2)Man(a1-6)]Man(b1-4)GlcNAc(b1-4)GlcNAc
In short: as §1

[42] = target: Neu5Ac(a2-6)Gal(b1-4)GlcNAc(b1-2)Man(a1-3)[GlcNAc(b1-4)][Neu5Ac(a2-6)Gal(b1-4)GlcNAc(b1-2)Man(a1-6)]Man(b1-4)GlcNAc(b1-4)GlcNAc
In short: as §1

B1: B3GalT2 (Rattus norvegicus) (protein)
chain: LMLQWRRRHCCFAKMSWNAKRSLFRTHLMGVLSLVFLFAMFLFFNHHDWLPGRPGFKENPVTYTFRGFRSTKTETNQSSLRNIWKEVVPQTLRPQTATNSNNTELSPQGVTGLENTLSANGSIYNEKGTGHPNSYHFKYIINEPEKCQEKSPFLILLIAAEPGQIEARRAIRQTWGNETLAPGIQITRIFLLGISIKLNGYLQHAIQEESIQYHDIIQQEYLDTYYNLTIKTLMGMNWVATYCPHTPYVMKTDSDMFVNTEYLIHKLLKPDLPPRHNYFTGYLMRGYAPNRNKDSKWYMPPDLYPSERYPVFCSGTGYVFSGDLAEKIFKVSLGIRRLHLEDVYVGICLAKLRVDPVPPPNEFVFNHWRVSYSSCKYSHLITSHQFQPSELIKYWNHLQQNKHNACVNAAKEKAGRYRHRKLH
In the case of B1, the “glycan array binding signal (z-score)” value [1] is reported as 1.51, the “glycan array binding signal (z-score)” value [2] is reported as -0.979 and the “glycan array binding signal (z-score)” value [3] is reported as 0.161. The “glycan array binding signal (z-score)” value [4] was -0.297, the “glycan array binding signal (z-score)” value [5] was -0.909 and the “glycan array binding signal (z-score)” value [6] was 1.43. The “glycan array binding signal (z-score)” value [7] was -0.738, the “glycan array binding signal (z-score)” value [8] was 0.577 and the “glycan array binding signal (z-score)” value [9] was -0.871. The “glycan array binding signal (z-score)” value [10] was -0.13, the “glycan array binding signal (z-score)” value [11] was -0.691 and the “glycan array binding signal (z-score)” value [12] was -0.87. For the same binder, the “glycan array binding signal (z-score)” value [13] was 0.671, the “glycan array binding signal (z-score)” value [14] was -0.392 and the “glycan array binding signal (z-score)” value [15] was 0.01. For the same binder, the “glycan array binding signal (z-score)” value [16] was -0.436, the “glycan array binding signal (z-score)” value [17] was -1.06 and the “glycan array binding signal (z-score)” value [18] was 0.174. The “glycan array binding signal (z-score)” value [19] was 1.28, the “glycan array binding signal (z-score)” value [20] was -0.579 and the “glycan array binding signal (z-score)” value [21] was 0.33. For the same binder, the “glycan array binding signal (z-score)” value [22] was 0.395, the “glycan array binding signal (z-score)” value [23] was -0.428 and the “glycan array binding signal (z-score)” value [24] was -0.684. For the same binder, the “glycan array binding signal (z-score)” value [25] was -0.485, the “glycan array binding signal (z-score)” value [26] was -0.716 and the “glycan array binding signal (z-score)” value [27] was -0.557. For the same binder, the “glycan array binding signal (z-score)” value [28] was 0.576, the “glycan array binding signal (z-score)” value [29] was 0.902 and the “glycan array binding signal (z-score)” value [30] was -0.505. The “glycan array binding signal (z-score)” value (Neu5Ac(a2-3)GalNAc) was 2.8, the “glycan array binding signal (z-score)” value [31] was 0.683 and the “glycan array binding signal (z-score)” value [32] was -0.125. For the same binder, the “glycan array binding signal (z-score)” value [33] was -0.318, the “glycan array binding signal (z-score)” value [34] was -1.11 and the “glycan array binding signal (z-score)” value [35] was 1.2. For the same binder, the “glycan array binding signal (z-score)” value (Neu5Ac(a2-6)Gal) was 2.53, the “glycan array binding signal (z-score)” value [36] was -0.99 and the “glycan array binding signal (z-score)” value (Neu5Ac(a2-6)Gal(b1-4)Glc) was 0.263. For the same binder, the “glycan array binding signal (z-score)” value [37] was 1.67, the “glycan array binding signal (z-score)” value [38] was -0.417 and the “glycan array binding signal (z-score)” value [39] was 0.591. For the same binder, the “glycan array binding signal (z-score)” value [40] was -0.721, the “glycan array binding signal (z-score)” value [41] was -0.991 and the “glycan array binding signal (z-score)” value [42] was 0.077.
